# Source: PubChem BioAssay AID1224830 (NIAID, 2016)
# Test: 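Regulators of TLR4 signalling towards TNF-alpha in macrophage-like cells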 (primary screen)
# System: human THP-1 monocytic leukaemia cells, TNF dual-luciferase reporter clone, PMA-differentiated to macrophage-like cells
# Reagent: siRNA pool against human genes, 50 nM
# Time to read-out: LPS for 4 h, given about 3 days after siRNA transfection
# Challenge: bacterial LPS (TLR4 ligand), 10 ng/ml
# Measurement: 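TNF firefly reporter luminescence divided by renilla, normalised to the plate median, then turned into a robust z-score for each replicate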
# Reading the numbers: TNF reporter robust z-score: higher = stronger TNF reporter response to LPS
# Active means: 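Each well counts as active if its z-score is over 2.8 or under -1.5; controls are left without a call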
# Here is a random part of about 18,000 reagents tested. In the full data, about 2,900 (16%) got an active call. 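Calls are made per well; low scores hint the gene aids the LPS response, high scores that it dampens it.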 Repeated entries: four replicate wells of each siRNA pool.
target gene,TNF reporter robust z-score,call
GABRQ (gamma-aminobutyric acid type A receptor subunit theta),-2.33,active
GABRQ (gamma-aminobutyric acid type A receptor subunit theta),0.02,inactive
GABRQ (gamma-aminobutyric acid type A receptor subunit theta),0.85,inactive
GABRQ (gamma-aminobutyric acid type A receptor subunit theta),0.31,inactive
TAL2 (TAL bHLH transcription factor 2),-0.66,inactive
TAL2 (TAL bHLH transcription factor 2),-0.14,inactive
TAL2 (TAL bHLH transcription factor 2),-0.75,inactive
TAL2 (TAL bHLH transcription factor 2),0.06,inactive
GUF1 (GTP binding elongation factor GUF1),1.25,inactive
GUF1 (GTP binding elongation factor GUF1),1.2,inactive
GUF1 (GTP binding elongation factor GUF1),1.21,inactive
GUF1 (GTP binding elongation factor GUF1),-0.32,inactive
SEZ6L (seizure related 6 homolog like),2.55,inactive
SEZ6L (seizure related 6 homolog like),1.79,inactive
SEZ6L (seizure related 6 homolog like),1.6,inactive
SEZ6L (seizure related 6 homolog like),2.6,inactive
SLC7A11,-0.4,inactive
SLC7A11,0.7,inactive
SLC7A11,-0.61,inactive
SLC7A11,0.42,inactive
NDRG3 (NDRG family member 3),0.36,inactive
NDRG3 (NDRG family member 3),1.23,inactive
NDRG3 (NDRG family member 3),1.46,inactive
NDRG3 (NDRG family member 3),1.84,inactive
TMEM70 (transmembrane protein 70),-0.08,inactive
TMEM70 (transmembrane protein 70),0.91,inactive
TMEM70 (transmembrane protein 70),0.74,inactive
TMEM70 (transmembrane protein 70),0.53,inactive
MTMR2 (myotubularin related protein 2),-0.91,inactive
MTMR2 (myotubularin related protein 2),-0.01,inactive
MTMR2 (myotubularin related protein 2),1.7,inactive
MTMR2 (myotubularin related protein 2),0.19,inactive
FAM111A (FAM111 trypsin like peptidase A),-0.2,inactive
FAM111A (FAM111 trypsin like peptidase A),-0.38,inactive
FAM111A (FAM111 trypsin like peptidase A),0.71,inactive
FAM111A (FAM111 trypsin like peptidase A),0.2,inactive
AP1M1 (adaptor related protein complex 1 subunit mu 1),-1.12,inactive
AP1M1 (adaptor related protein complex 1 subunit mu 1),0.02,inactive
AP1M1 (adaptor related protein complex 1 subunit mu 1),-0.24,inactive
AP1M1 (adaptor related protein complex 1 subunit mu 1),0.11,inactive
CD1D (CD1d molecule),0.45,inactive
CD1D (CD1d molecule),1.74,inactive
CD1D (CD1d molecule),1.35,inactive
CD1D (CD1d molecule),-0.08,inactive
ATMIN (ATM interactor),-1.87,active
ATMIN (ATM interactor),-0.71,inactive
ATMIN (ATM interactor),-1.26,inactive
ATMIN (ATM interactor),-1.08,inactive

Laid out differently: 8 of the entries above.
NDRG3 (NDRG family member 3)
- TNF reporter robust z-score: 0.36
- call: inactive

NDRG3 (NDRG family member 3)
- TNF reporter robust z-score: 1.23
- call: inactive

NDRG3 (NDRG family member 3)
- TNF reporter robust z-score: 1.46
- call: inactive

NDRG3 (NDRG family member 3)
- TNF reporter robust z-score: 1.84
- call: inactive

TMEM70 (transmembrane protein 70)
- TNF reporter robust z-score: -0.08
- call: inactive

TMEM70 (transmembrane protein 70)
- TNF reporter robust z-score: 0.91
- call: inactive

TMEM70 (transmembrane protein 70)
- TNF reporter robust z-score: 0.74
- call: inactive

TMEM70 (transmembrane protein 70)
- TNF reporter robust z-score: 0.53
- call: inactive
